The list shows a part of the results, in another mix than the full data. The source made the active and inactive calls. Rule as the data show it: active = IC50 below about 20 µM; inactive = the rest.
Assay: mitochondrial permeability transition pore inhibitors, dose response, biochemical, absorbance, uHTS hits (AID 651561)
Conditions: isolated mitochondria swelling

CNCCCC12CCC(c3ccccc31)c1ccccc12
IC50: active: 4.28 µM
